No constants are given. Whether binding was seen depends on the method and setting. In cells and extracts the contact can be indirect. Some entries that bind do so weakly or less than the wild type. For part of these data: Sequences can lack the tags named with a protein.
Legend:
[1] = target: Mcherry-NLRP3 (UniProt Q96P20); assay: co-IP; Flag-NEK7 and mCherry-NLRP3 co-expressed in HEK-293T cells with or without different doses of GFP-TRIM65 (Figure 4F)
[2] = target: Flag-NACHT (NLRP3 NACHT domain) (UniProt Q96P20); assay: co-IP; both partners cotransfected in HEK-293T cells (polyethylenimine, 24 h); extracts immunoprecipitated (anti-Flag beads 3 h at 4°C, or antibody and protein A/G agarose 12 h at 4°C), washed four times in NP-40 lysis buffer, western blotting (Figures 1A, 1F, 1G)
[3] = target: Flag-NLRP3 (full length) (UniProt Q96P20); assay: as above
[4] = target: Flag-NLRP3 (full length) (UniProt Q96P20); assay: co-IP; Flag-NLRP3 transfected in HEK-293T cells, endogenous TRIM65 detected by western blotting (Figure 1B)
[5] = target: endogenous NLRP3 (THP-1) (human (endogenous in THP-1)) (UniProt Q96P20); assay: co-IP; both endogenous; lysates of PMA-differentiated and LPS-primed THP-1 cells immunoprecipitated with anti-NLRP3 antibody (Figure 1C); also with or without MSU stimulation (Figure 4D)
[6] = target: VSV-NLRP3 (UniProt Q96P20); assay: co-IP; both partners cotransfected in HEK-293T cells (polyethylenimine, 24 h); extracts immunoprecipitated (anti-Flag beads 3 h at 4°C, or antibody and protein A/G agarose 12 h at 4°C), washed four times in NP-40 lysis buffer, western blotting (Figures 1A, 1F, 1G)

The chains behind the UniProt entries cited, without tags or fusion partners. Where a name states a change or a piece, a line headed by the entry shows the natural chain unless it says otherwise. Residues count along the entry.
UniProt Q96P20: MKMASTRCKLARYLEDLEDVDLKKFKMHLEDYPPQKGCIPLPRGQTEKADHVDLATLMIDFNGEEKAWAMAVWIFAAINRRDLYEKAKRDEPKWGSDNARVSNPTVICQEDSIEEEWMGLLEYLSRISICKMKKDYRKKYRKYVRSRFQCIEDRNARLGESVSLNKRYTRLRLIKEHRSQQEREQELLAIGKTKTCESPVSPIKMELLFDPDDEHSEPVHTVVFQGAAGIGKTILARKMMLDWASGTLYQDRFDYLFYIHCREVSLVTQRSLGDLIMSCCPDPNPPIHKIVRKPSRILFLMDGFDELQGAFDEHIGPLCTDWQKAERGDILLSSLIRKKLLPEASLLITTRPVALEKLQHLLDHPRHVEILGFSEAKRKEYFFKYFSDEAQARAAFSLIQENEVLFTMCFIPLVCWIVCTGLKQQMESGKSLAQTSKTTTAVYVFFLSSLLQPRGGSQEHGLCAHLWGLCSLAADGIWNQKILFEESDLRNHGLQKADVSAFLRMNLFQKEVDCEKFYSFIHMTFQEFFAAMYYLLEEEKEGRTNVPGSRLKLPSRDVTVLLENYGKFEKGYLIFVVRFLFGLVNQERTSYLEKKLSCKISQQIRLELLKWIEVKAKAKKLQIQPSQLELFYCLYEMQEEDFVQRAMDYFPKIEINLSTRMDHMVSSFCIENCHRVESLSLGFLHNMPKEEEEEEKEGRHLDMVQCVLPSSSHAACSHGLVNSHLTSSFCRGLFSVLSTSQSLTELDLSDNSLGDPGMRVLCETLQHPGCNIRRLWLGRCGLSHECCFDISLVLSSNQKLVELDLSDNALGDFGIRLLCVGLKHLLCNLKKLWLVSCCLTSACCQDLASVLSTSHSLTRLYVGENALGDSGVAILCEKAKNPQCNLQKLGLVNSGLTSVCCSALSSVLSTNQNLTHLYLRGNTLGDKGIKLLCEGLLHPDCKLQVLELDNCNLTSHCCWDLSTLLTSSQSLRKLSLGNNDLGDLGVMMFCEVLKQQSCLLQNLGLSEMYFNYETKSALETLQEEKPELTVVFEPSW
Flag-NACHT (NLRP3 NACHT domain): residues 220-536 of Q96P20

B1: GFP-TRIM65 (full length) (protein, UniProt Q6PJ69 1-517)
chain: MAAQLLEEKLTCAICLGLYQDPVTLPCGHNFCGACIRDWWDRCGKACPECREPFPDGAELRRNVALSGVLEVVRAGPARDPGPDPGPGPDPAARCPRHGRPLELFCRTEGRCVCSVCTVRECRLHERALLDAERLKREAQLRASLEVTQQQATQAEGQLLELRKQSSQIQNSACILASWVSGKFSSLLQALEIQHTTALRSIEVAKTQALAQARDEEQRLRVHLEAVARHGCRIRELLEQVDEQTFLQESQLLQPPGPLGPLTPLQWDEDQQLGDLKQLLSRLCGLLLEEGSHPGAPAKPVDLAPVEAPGPLAPVPSTVCPLRRKLWQNYRNLTFDPVSANRHFYLSRQDQQVKHCRQSRGPGGPGSFELWQVQCAQSFQAGHHYWEVRASDHSVTLGVSYPQLPRCRLGPHTDNIGRGPCSWGLCVQEDSLQAWHNGEAQRLPGVSGRLLGMDLDLASGCLTFYSLEPQTQPLYTFHALFNQPLTPVFWLLEGRTLTLCHQPGAVFPLGPQEEVLS
B1 was tested, and the binding [1] was “binds”, the binding [2] was “binds” and the binding [3] was “binds”.

B2: endogenous TRIM65 (HEK-293T) (protein, UniProt Q6PJ69 1-517)
chain: MAAQLLEEKLTCAICLGLYQDPVTLPCGHNFCGACIRDWWDRCGKACPECREPFPDGAELRRNVALSGVLEVVRAGPARDPGPDPGPGPDPAARCPRHGRPLELFCRTEGRCVCSVCTVRECRLHERALLDAERLKREAQLRASLEVTQQQATQAEGQLLELRKQSSQIQNSACILASWVSGKFSSLLQALEIQHTTALRSIEVAKTQALAQARDEEQRLRVHLEAVARHGCRIRELLEQVDEQTFLQESQLLQPPGPLGPLTPLQWDEDQQLGDLKQLLSRLCGLLLEEGSHPGAPAKPVDLAPVEAPGPLAPVPSTVCPLRRKLWQNYRNLTFDPVSANRHFYLSRQDQQVKHCRQSRGPGGPGSFELWQVQCAQSFQAGHHYWEVRASDHSVTLGVSYPQLPRCRLGPHTDNIGRGPCSWGLCVQEDSLQAWHNGEAQRLPGVSGRLLGMDLDLASGCLTFYSLEPQTQPLYTFHALFNQPLTPVFWLLEGRTLTLCHQPGAVFPLGPQEEVLS
For B2, the binding [4] was “binds”.

B3: endogenous TRIM65 (THP-1) (protein, UniProt Q6PJ69 1-517)
chain: MAAQLLEEKLTCAICLGLYQDPVTLPCGHNFCGACIRDWWDRCGKACPECREPFPDGAELRRNVALSGVLEVVRAGPARDPGPDPGPGPDPAARCPRHGRPLELFCRTEGRCVCSVCTVRECRLHERALLDAERLKREAQLRASLEVTQQQATQAEGQLLELRKQSSQIQNSACILASWVSGKFSSLLQALEIQHTTALRSIEVAKTQALAQARDEEQRLRVHLEAVARHGCRIRELLEQVDEQTFLQESQLLQPPGPLGPLTPLQWDEDQQLGDLKQLLSRLCGLLLEEGSHPGAPAKPVDLAPVEAPGPLAPVPSTVCPLRRKLWQNYRNLTFDPVSANRHFYLSRQDQQVKHCRQSRGPGGPGSFELWQVQCAQSFQAGHHYWEVRASDHSVTLGVSYPQLPRCRLGPHTDNIGRGPCSWGLCVQEDSLQAWHNGEAQRLPGVSGRLLGMDLDLASGCLTFYSLEPQTQPLYTFHALFNQPLTPVFWLLEGRTLTLCHQPGAVFPLGPQEEVLS
For B3, the binding [5] was “binds”.

B4: Flag-TRIM65 (full length, Figure 1F) (protein, UniProt Q6PJ69 1-517)
chain: MAAQLLEEKLTCAICLGLYQDPVTLPCGHNFCGACIRDWWDRCGKACPECREPFPDGAELRRNVALSGVLEVVRAGPARDPGPDPGPGPDPAARCPRHGRPLELFCRTEGRCVCSVCTVRECRLHERALLDAERLKREAQLRASLEVTQQQATQAEGQLLELRKQSSQIQNSACILASWVSGKFSSLLQALEIQHTTALRSIEVAKTQALAQARDEEQRLRVHLEAVARHGCRIRELLEQVDEQTFLQESQLLQPPGPLGPLTPLQWDEDQQLGDLKQLLSRLCGLLLEEGSHPGAPAKPVDLAPVEAPGPLAPVPSTVCPLRRKLWQNYRNLTFDPVSANRHFYLSRQDQQVKHCRQSRGPGGPGSFELWQVQCAQSFQAGHHYWEVRASDHSVTLGVSYPQLPRCRLGPHTDNIGRGPCSWGLCVQEDSLQAWHNGEAQRLPGVSGRLLGMDLDLASGCLTFYSLEPQTQPLYTFHALFNQPLTPVFWLLEGRTLTLCHQPGAVFPLGPQEEVLS
For B4, the binding [6] was “binds”.
